The other results are listed elsewhere or left out.
Tests used:
Assay in all cases: log2 fold change, soluble protein after heating vs DMSO (PISA); higher = thermal stabilisation; K562 cells, 10 uM, 30 min; active = over 0.2 and 3.5 SD of the protein, either way, in both replicates (recomputed)
ZNF428 = ZNF428 (UniProt M0QXZ5)
How it was run: (§1)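 Quantification of soluble protein used TMTpro 16plex LC-MS/MS, with channel sums equalised. Samples were the supernatant after 21,000xg for 90 min of pooled aliquots from K562 cells (2×10^6 cells/mL) treated with 10 μM compound for 30 min, heated for 3 min over 48°C-58°C, and extracted in PBS with 0.5% NP-40 at 4°C. Values, from duplicates, describe thermal stability against control samples on a log2 fold-change scale.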

The chains behind the UniProt entries cited, without tags or fusion partners. Where a name states a change or a piece, a line headed by the entry shows the natural chain unless it says otherwise.
UniProt Q8N0Y2: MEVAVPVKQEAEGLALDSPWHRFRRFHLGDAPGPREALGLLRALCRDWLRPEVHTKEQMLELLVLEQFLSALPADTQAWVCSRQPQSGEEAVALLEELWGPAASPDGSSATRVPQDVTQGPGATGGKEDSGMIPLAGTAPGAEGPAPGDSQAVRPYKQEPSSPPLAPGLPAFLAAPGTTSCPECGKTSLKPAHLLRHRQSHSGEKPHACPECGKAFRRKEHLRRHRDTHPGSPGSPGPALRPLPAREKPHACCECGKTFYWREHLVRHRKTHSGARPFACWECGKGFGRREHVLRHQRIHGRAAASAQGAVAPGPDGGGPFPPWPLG
UniProt Q86UK7: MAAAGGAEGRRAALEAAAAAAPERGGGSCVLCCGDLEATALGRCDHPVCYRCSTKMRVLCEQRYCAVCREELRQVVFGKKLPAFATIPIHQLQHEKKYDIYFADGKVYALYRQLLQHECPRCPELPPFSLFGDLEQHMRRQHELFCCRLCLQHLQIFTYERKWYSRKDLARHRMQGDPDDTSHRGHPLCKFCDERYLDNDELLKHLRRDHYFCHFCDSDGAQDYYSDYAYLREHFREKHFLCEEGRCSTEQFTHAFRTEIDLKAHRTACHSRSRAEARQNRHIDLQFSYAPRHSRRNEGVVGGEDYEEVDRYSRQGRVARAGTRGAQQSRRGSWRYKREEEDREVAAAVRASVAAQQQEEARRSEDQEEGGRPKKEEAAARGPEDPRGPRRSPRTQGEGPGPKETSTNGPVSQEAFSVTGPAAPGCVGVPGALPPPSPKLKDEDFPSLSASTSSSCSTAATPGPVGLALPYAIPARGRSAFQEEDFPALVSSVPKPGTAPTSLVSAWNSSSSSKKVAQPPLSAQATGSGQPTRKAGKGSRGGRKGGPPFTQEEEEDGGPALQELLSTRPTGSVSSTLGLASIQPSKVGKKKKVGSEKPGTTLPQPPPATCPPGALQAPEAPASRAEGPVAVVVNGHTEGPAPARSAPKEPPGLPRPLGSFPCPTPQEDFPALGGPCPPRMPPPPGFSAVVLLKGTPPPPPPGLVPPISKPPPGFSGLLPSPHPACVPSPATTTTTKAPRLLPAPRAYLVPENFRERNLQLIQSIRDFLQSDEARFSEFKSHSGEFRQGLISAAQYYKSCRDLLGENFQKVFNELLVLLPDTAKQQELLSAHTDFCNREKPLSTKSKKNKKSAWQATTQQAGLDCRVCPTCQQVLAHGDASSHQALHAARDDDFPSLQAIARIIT
UniProt Q5T7W0: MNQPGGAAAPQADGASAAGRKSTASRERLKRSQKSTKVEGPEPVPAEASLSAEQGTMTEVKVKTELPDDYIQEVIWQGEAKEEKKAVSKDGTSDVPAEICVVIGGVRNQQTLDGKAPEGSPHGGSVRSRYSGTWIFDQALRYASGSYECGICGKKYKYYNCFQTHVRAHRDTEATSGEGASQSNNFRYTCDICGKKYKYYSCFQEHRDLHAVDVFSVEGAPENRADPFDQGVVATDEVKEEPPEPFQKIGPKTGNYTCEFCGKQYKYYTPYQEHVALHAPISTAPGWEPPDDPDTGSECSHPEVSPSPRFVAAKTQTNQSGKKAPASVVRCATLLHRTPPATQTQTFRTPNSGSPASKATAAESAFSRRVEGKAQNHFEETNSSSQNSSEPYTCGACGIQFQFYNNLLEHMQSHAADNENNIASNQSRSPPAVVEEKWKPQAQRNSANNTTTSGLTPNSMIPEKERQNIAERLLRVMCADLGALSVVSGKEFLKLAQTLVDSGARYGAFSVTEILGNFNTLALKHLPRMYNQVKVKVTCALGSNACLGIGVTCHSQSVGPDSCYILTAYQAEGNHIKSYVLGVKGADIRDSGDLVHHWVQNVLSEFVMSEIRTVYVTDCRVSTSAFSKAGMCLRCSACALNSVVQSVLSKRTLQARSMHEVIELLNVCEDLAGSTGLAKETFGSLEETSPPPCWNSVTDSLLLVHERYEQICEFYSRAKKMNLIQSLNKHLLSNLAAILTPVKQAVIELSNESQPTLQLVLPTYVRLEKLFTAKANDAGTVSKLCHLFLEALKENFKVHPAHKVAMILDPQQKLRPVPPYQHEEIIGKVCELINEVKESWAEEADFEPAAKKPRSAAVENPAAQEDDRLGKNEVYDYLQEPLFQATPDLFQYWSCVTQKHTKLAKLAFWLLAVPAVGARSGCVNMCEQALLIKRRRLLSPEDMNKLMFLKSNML
UniProt Q9UEG4: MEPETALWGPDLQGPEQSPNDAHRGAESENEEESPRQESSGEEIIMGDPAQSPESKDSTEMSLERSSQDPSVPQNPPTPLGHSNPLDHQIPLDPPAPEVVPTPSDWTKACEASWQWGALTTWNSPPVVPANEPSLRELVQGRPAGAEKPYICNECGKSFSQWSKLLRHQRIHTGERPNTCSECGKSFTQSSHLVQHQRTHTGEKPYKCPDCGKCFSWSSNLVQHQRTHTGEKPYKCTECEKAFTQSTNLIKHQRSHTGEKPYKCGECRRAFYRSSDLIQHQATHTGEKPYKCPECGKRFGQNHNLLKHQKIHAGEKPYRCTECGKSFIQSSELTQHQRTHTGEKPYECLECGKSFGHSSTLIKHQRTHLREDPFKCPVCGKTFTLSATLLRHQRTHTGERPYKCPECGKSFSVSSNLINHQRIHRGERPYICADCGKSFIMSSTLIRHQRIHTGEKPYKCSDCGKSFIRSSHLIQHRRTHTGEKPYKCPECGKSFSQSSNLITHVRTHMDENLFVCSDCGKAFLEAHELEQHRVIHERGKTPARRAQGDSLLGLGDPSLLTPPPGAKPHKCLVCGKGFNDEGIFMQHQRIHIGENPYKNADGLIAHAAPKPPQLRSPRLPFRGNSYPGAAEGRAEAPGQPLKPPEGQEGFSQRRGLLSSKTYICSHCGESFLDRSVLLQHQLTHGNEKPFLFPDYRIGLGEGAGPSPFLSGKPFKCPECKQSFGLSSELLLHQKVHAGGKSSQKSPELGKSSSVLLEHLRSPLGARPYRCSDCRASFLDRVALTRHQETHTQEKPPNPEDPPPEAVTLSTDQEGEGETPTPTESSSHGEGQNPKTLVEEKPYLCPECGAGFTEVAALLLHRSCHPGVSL
UniProt Q96ME7: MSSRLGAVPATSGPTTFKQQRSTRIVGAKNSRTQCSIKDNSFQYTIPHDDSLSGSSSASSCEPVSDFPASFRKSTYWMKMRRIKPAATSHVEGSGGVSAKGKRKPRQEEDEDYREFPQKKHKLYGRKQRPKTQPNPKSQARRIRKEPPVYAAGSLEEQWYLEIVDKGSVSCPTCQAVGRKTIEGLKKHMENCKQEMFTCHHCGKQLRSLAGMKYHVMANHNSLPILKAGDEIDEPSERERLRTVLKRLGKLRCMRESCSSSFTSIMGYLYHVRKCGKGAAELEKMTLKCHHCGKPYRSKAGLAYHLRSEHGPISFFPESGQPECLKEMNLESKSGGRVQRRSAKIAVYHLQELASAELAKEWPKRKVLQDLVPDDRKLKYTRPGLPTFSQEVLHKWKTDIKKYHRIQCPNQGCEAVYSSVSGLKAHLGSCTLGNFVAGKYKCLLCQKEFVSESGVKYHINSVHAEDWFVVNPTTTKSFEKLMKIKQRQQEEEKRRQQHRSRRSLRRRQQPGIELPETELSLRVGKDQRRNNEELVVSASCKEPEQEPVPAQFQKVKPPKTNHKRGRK
UniProt O15014: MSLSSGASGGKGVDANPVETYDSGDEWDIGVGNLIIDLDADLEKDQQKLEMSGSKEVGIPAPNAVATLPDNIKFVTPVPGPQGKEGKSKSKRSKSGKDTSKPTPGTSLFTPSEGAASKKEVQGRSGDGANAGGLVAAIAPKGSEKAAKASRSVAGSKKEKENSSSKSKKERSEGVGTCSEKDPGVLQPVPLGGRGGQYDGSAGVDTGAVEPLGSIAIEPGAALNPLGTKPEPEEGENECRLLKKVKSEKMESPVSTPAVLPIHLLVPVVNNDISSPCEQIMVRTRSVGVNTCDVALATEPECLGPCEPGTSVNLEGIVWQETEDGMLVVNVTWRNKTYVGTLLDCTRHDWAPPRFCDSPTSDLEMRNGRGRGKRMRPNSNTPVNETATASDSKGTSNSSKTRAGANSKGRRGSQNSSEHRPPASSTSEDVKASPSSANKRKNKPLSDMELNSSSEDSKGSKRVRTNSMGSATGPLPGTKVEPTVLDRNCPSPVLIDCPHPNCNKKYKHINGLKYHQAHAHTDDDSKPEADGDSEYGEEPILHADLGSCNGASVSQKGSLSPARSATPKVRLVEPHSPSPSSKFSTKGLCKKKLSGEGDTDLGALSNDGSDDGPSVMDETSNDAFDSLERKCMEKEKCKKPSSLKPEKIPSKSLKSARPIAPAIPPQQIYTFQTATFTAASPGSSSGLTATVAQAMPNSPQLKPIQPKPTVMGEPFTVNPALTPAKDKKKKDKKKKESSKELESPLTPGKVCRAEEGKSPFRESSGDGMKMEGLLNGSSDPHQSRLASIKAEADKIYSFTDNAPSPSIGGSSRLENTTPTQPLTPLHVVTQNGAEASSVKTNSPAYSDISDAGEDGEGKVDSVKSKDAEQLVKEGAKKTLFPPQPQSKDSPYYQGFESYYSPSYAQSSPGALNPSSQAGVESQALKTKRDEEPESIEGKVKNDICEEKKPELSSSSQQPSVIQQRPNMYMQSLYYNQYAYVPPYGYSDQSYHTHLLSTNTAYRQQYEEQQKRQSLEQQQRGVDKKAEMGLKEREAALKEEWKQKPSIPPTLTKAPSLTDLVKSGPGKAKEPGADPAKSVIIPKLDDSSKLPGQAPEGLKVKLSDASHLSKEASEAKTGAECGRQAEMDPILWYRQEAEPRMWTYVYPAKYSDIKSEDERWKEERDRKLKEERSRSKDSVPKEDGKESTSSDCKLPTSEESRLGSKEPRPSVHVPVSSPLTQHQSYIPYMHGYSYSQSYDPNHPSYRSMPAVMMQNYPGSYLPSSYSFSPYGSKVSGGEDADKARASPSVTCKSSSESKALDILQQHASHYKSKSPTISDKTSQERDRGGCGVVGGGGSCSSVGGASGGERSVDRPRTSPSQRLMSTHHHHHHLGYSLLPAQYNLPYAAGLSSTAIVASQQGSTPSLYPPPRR
UniProt Q9UID6: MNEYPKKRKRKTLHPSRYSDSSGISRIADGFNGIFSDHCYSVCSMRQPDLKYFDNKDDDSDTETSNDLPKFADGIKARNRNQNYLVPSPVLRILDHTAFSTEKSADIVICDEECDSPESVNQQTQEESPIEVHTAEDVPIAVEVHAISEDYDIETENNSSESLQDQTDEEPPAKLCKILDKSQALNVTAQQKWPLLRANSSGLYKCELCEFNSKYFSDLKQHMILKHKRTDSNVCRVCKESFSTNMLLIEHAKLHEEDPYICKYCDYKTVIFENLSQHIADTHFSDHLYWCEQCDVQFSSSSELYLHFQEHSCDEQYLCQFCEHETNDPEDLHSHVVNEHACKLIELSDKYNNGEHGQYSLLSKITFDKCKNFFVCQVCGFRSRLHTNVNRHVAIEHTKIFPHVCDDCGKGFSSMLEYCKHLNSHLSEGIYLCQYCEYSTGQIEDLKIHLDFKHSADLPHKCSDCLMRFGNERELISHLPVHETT
UniProt Q9UK33: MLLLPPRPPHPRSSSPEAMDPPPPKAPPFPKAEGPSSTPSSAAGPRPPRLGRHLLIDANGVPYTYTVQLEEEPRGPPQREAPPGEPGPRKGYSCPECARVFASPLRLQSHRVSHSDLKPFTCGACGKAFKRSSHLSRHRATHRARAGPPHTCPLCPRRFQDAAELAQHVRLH
UniProt Q96KM6: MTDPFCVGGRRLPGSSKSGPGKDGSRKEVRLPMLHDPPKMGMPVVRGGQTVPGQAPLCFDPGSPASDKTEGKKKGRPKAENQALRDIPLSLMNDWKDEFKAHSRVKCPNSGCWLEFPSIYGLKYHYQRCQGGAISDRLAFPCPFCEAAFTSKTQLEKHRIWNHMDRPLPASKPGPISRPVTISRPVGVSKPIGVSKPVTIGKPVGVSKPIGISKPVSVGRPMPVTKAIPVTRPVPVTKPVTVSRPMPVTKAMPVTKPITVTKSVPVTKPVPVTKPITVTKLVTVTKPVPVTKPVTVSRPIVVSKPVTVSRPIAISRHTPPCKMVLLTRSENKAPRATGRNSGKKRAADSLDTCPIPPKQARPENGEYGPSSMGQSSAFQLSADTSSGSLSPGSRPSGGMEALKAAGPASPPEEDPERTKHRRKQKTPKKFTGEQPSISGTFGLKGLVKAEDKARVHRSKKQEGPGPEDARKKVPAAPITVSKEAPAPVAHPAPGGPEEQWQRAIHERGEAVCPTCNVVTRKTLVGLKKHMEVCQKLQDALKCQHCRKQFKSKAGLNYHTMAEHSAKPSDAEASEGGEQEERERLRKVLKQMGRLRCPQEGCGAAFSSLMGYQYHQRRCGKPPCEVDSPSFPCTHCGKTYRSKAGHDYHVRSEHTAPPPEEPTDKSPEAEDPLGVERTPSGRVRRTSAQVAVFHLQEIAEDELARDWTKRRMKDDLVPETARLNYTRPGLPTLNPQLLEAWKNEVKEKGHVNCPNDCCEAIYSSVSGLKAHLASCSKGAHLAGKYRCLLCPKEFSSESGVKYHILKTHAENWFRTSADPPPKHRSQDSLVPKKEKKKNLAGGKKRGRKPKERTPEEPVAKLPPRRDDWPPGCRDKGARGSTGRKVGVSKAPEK

ZNF444 = ZNF444 (UniProt Q8N0Y2)
How it was run: as §1

ZNF581 = ZNF581 (UniProt Q9P0T4)
How it was run: as §1

ZNF593 = ZNF593 (UniProt O00488)
How it was run: as §1

ZNF598 = ZNF598 (UniProt Q86UK7)
How it was run: as §1

ZNF618 [1] = molecular target: ZNF618 (UniProt B1ALC2)
How it was run: as §1

ZNF618 [2] = molecular target: ZNF618 (UniProt Q5T7W0)
How it was run: as §1

ZNF629 = ZNF629 (UniProt Q9UEG4)
How it was run: as §1

ZNF638 = ZNF638 (UniProt Q14966)
How it was run: as §1

ZNF511 isoform 1 = ZNF511 isoform 1 (UniProt Q8NB15)
How it was run: as §1

ZNF512 = ZNF512 (UniProt Q96ME7)
How it was run: as §1

ZNF579 = ZNF579 (UniProt Q8NAF0)
How it was run: as §1

ZNF609 = ZNF609 (UniProt O15014)
How it was run: as §1

ZNF622 = ZNF622 (UniProt Q969S3)
How it was run: as §1

ZNF639 = ZNF639 (UniProt Q9UID6)
How it was run: as §1

ZNF580 = ZNF580 (UniProt Q9UK33)
How it was run: as §1

ZNF618 isoform 2 = ZNF618 isoform 2 (UniProt Q5T7W0)
How it was run: as §1

ZNF451 = ZNF451 (UniProt Q9Y4E5)
How it was run: as §1

ZNF512B = ZNF512B (UniProt Q96KM6)
How it was run: as §1

Measured: log2 fold change

CN1CC[C@H](c2c(O)cc(O)c3c(=O)cc(-c4ccccc4Cl)oc23)[C@H](O)C1 [alvocidib]
inactive: ZNF428 = 0 | ZNF444 = 0.101 | ZNF581 = 0.131 | ZNF593 = 0.287 | ZNF598 = -0.225 | ZNF618 [1] 0 | ZNF618 [2] -0.021 | ZNF629 = 0.254 | ZNF638 = -0.053

CC(=O)c1cnc2ccc(-c3cc(Cl)c(O)c(Cl)c3)nc2c1N[C@H]1CC[C@H](CN(C)C)CC1
inactive: ZNF428 = -0.039 | ZNF444 = -0.058 | ZNF511 isoform 1 = -0.005 | ZNF512 = -0.15 | ZNF579 = -0.187 | ZNF581 = -0.086 | ZNF593 = 0.004 | ZNF598 = -0.078 | ZNF609 = -0.071 | ZNF618 [2] 0.029 | ZNF622 = 0.096 | ZNF629 = 0.185 | ZNF638 = 0.038 | ZNF639 = -0.127

C/C(=N\NC(=O)c1cccc(S(=O)(=O)N2CCOCC2)c1)c1cc(Cl)ccc1O
active: ZNF511 isoform 1 = -0.402
inactive: ZNF428 = -0.05 | ZNF444 = -0.13 | ZNF512 = -0.085 | ZNF579 = 0.147 | ZNF581 = 0.11 | ZNF593 = -0.079 | ZNF598 = 0.072 | ZNF609 = -0.048 | ZNF618 [2] 0.021 | ZNF622 = 0.015 | ZNF629 = -0.108 | ZNF638 = -0.113 | ZNF639 = 0.118

CS(=O)(=O)CCNCc1ccc(-c2ccc3ncnc(Nc4ccc(OCc5cccc(F)c5)c(Cl)c4)c3c2)o1 [lapatinib]
inactive: ZNF428 = 0.075 | ZNF444 = 0.154 | ZNF511 isoform 1 = -0.085 | ZNF579 = 0.05 | ZNF580 = -0.025 | ZNF593 = 0.091 | ZNF598 = 0.009 | ZNF609 = 0.09 | ZNF618 [2] 0 | ZNF618 isoform 2 = 0.037 | ZNF622 = 0 | ZNF629 = 0.101

CCCS(=O)(=O)Nc1ccc(F)c(C(=O)c2c[nH]c3ncc(-c4ccc(Cl)cc4)cc23)c1F [vemurafenib]
inactive: ZNF428 = 0.091 | ZNF444 = -0.086 | ZNF511 isoform 1 = -0.087 | ZNF579 = -0.157 | ZNF580 = 0.042 | ZNF593 = -0.09 | ZNF598 = 0.028 | ZNF609 = 0.025 | ZNF618 [2] -0.094 | ZNF618 isoform 2 = 0.249 | ZNF622 = 0.012 | ZNF629 = -0.111 | ZNF638 = -0.079 | ZNF639 = 0.195

CC[C@@H]1C(=O)N(C)c2cnc(Nc3ccc(C(=O)N[C@H]4CC[C@H](N5CCN(CC6CC6)CC5)CC4)cc3OC)nc2N1C(C)C [volasertib]
inactive: ZNF428 = 0.057 | ZNF444 = 0.116 | ZNF511 isoform 1 = 0.007 | ZNF579 = 0.098 | ZNF580 = 0.025 | ZNF593 = 0.382 | ZNF598 = -0.123 | ZNF609 = -0.328 | ZNF618 [2] 0.018 | ZNF618 isoform 2 = -0.007 | ZNF622 = 0.138 | ZNF629 = 0.197

CCCc1cc(C)[nH]c(=O)c1CNC(=O)c1cc(-c2ccnc(N3CCN(C)CC3)c2)cc2c1cnn2C(C)C
inactive: ZNF428 = -0.055 | ZNF451 = 0.142 | ZNF511 isoform 1 = 0.08 | ZNF512 = 0.363 | ZNF512B 0.037 | ZNF579 = 0.058 | ZNF581 = 0.085 | ZNF593 = 0.06 | ZNF598 = 0.027 | ZNF609 = -0.003 | ZNF618 [1] -0.34 | ZNF618 [2] -0.024 | ZNF618 isoform 2 = 0.042 | ZNF622 = -0.01 | ZNF629 = 0.173 | ZNF638 = -0.248

NC(=O)c1cnc(N[C@@H]2CCCC[C@@H]2N)nc1Nc1cccc(-n2nccn2)c1
inactive: ZNF428 = 0.088 | ZNF444 = 0.177 | ZNF511 isoform 1 = -0.066 | ZNF512 = -0.005 | ZNF579 = 0.067 | ZNF581 = -0.015 | ZNF593 = -0.025 | ZNF598 = 0.008 | ZNF609 = 0.015 | ZNF618 [2] -0.034 | ZNF622 = -0.002 | ZNF629 = 0.141 | ZNF638 = 0.029 | ZNF639 = -0.127

COc1cc(Nc2ncc3c(n2)-c2ccc(Cl)cc2C(c2c(F)cccc2OC)=NC3)ccc1C(=O)O [alisertib]
inactive: ZNF428 = -0.066 | ZNF451 = -0.143 | ZNF511 isoform 1 = 1.14 | ZNF512 = -0.286 | ZNF512B -0.119 | ZNF579 = -0.082 | ZNF581 = 0 | ZNF593 = -0.064 | ZNF598 = -0.024 | ZNF609 = -0.021 | ZNF618 [1] 0.127 | ZNF618 [2] 0.246 | ZNF618 isoform 2 = 0.044 | ZNF622 = -0.028 | ZNF629 = -0.046 | ZNF638 = -0.031

Nc1ccccc1NC(=O)c1ccc(CNC(=O)OCc2cccnc2)cc1 [entinostat]
inactive: ZNF428 = -0.05 | ZNF444 = -0.144 | ZNF511 isoform 1 = -0.078 | ZNF579 = -0.036 | ZNF580 = 0 | ZNF593 = -0.1 | ZNF598 = 0.004 | ZNF609 = -0.061 | ZNF618 [2] 0.007 | ZNF618 isoform 2 = -0.104 | ZNF622 = -0.007 | ZNF629 = -0.03 | ZNF638 = -0.022 | ZNF639 = -0.007

FC(F)(F)c1ccc(/C=C/c2nc(COc3ccc(CCCCn4ccnn4)cc3)co2)cc1 [mubritinib]
inactive: ZNF428 = 0.001 | ZNF451 = 0.298 | ZNF511 isoform 1 = -0.06 | ZNF512 = -0.122 | ZNF512B -0.225 | ZNF579 = 0.031 | ZNF581 = -0.358 | ZNF593 = -0.133 | ZNF598 = 0.044 | ZNF609 = 0.019 | ZNF618 [1] 0.313 | ZNF618 [2] -0.005 | ZNF618 isoform 2 = -0.106 | ZNF622 = 0.004 | ZNF629 = -0.133 | ZNF638 = 0.134

Cn1cc(-c2ccc3c(c2)CCN3C(=O)Cc2cccc(C(F)(F)F)c2)c2c(N)ncnc21
active: ZNF512 = -0.86
inactive: ZNF428 = 0.106 | ZNF444 = -0.026 | ZNF511 isoform 1 = 0.01 | ZNF579 = 0.059 | ZNF581 = -0.195 | ZNF593 = -0.288 | ZNF598 = 0.085 | ZNF609 = -0.041 | ZNF618 [1] -0.012 | ZNF618 [2] -0.036 | ZNF622 = 0.067 | ZNF629 = -0.3 | ZNF638 = -0.087

CO[C@H]1C[C@@H]2CC[C@@H](C)[C@@](O)(O2)C(=O)C(=O)N2CCCC[C@H]2C(=O)O[C@H]([C@H](C)C[C@@H]2CC[C@H](n3cnnn3)[C@H](OC)C2)CC(=O)[C@H](C)/C=C(\C)[C@@H](O)[C@@H](OC)C(=O)[C@H](C)C[C@H](C)/C=C/C=C/C=C/1C [zotarolimus]
inactive: ZNF428 = 0.089 | ZNF444 = -0.02 | ZNF511 isoform 1 = 0.066 | ZNF512 = -0.024 | ZNF579 = 0.099 | ZNF581 = -0.107 | ZNF593 = 0.111 | ZNF598 = 0.016 | ZNF609 = -0.008 | ZNF618 [1] -0.155 | ZNF618 [2] -0.034 | ZNF622 = -0.017 | ZNF629 = -0.024 | ZNF638 = 0.018

Cn1cncc1[C@@](N)(c1ccc(Cl)cc1)c1ccc2c(c1)c(-c1cccc(Cl)c1)cc(=O)n2C [tipifarnib]
inactive: ZNF428 = 0.014 | ZNF444 = 0.119 | ZNF511 isoform 1 = 0.062 | ZNF579 = 0 | ZNF580 = -0.204 | ZNF593 = 0.007 | ZNF598 = -0.042 | ZNF609 = 0 | ZNF618 [2] 0.026 | ZNF618 isoform 2 = 0.135 | ZNF622 = -0.048 | ZNF629 = 0.025

Cc1ccc(NC(=O)c2cccc(C(C)(C)C#N)c2)cc1Nc1ccc2ncn(C)c(=O)c2c1
inactive: ZNF428 = 0.077 | ZNF444 = -0.026 | ZNF511 isoform 1 = -0.026 | ZNF579 = 0.043 | ZNF580 = -0.174 | ZNF593 = 0.016 | ZNF598 = -0.002 | ZNF609 = -0.046 | ZNF618 [2] 0.03 | ZNF618 isoform 2 = 0.012 | ZNF622 = 0.048 | ZNF629 = -0.059 | ZNF638 = -0.03 | ZNF639 = -0.205

O=C1NC(=NCc2cccs2)S/C1=C\c1ccc2ncccc2c1
inactive: ZNF428 = -0.064 | ZNF444 = 0.004 | ZNF511 isoform 1 = 0.087 | ZNF512 = 0.102 | ZNF579 = -0.051 | ZNF581 = -0.077 | ZNF593 = -0.024 | ZNF598 = 0.02 | ZNF609 = -0.025 | ZNF618 [2] 0.033 | ZNF622 = 0.07 | ZNF629 = -0.074 | ZNF638 = 0.037 | ZNF639 = -0.06

2 compounds drawn at random from the list so far, as already listed:
Cn1cc(-c2ccc3c(c2)CCN3C(=O)Cc2cccc(C(F)(F)F)c2)c2c(N)ncnc21
active: ZNF512 = -0.86
inactive: ZNF428 = 0.106 | ZNF444 = -0.026 | ZNF511 isoform 1 = 0.01 | ZNF579 = 0.059 | ZNF581 = -0.195 | ZNF593 = -0.288 | ZNF598 = 0.085 | ZNF609 = -0.041 | ZNF618 [1] -0.012 | ZNF618 [2] -0.036 | ZNF622 = 0.067 | ZNF629 = -0.3 | ZNF638 = -0.087

Cc1ccc(NC(=O)c2cccc(C(C)(C)C#N)c2)cc1Nc1ccc2ncn(C)c(=O)c2c1
inactive: ZNF428 = 0.077 | ZNF444 = -0.026 | ZNF511 isoform 1 = -0.026 | ZNF579 = 0.043 | ZNF580 = -0.174 | ZNF593 = 0.016 | ZNF598 = -0.002 | ZNF609 = -0.046 | ZNF618 [2] 0.03 | ZNF618 isoform 2 = 0.012 | ZNF622 = 0.048 | ZNF629 = -0.059 | ZNF638 = -0.03 | ZNF639 = -0.205

(cont.)

Cc1ccc(Sc2cncc3sc(C(N)=O)cc23)cc1
inactive: ZNF428 = 0.004 | ZNF444 = -0.083 | ZNF511 isoform 1 = 0.018 | ZNF579 = -0.07 | ZNF580 = 0.16 | ZNF593 = -0.127 | ZNF598 = 0.015 | ZNF609 = -0.045 | ZNF618 [2] 0.019 | ZNF618 isoform 2 = -0.015 | ZNF622 = -0.022 | ZNF629 = -0.054
